# Experimental data: patent US5693608A, “Method of administering a biologically active substance” (Bechgaard International Research and Development A/S, priority 1990, dated 1997)
# Assay: Volume of aqueous solution needed to dissolve clinically relevant dose
# Type: physicochemical
structure (smiles),measurement,value
CN1C(=O)CN=C(c2ccccc2)c2cc(Cl)ccc21 [diazepam],volume of aqueous solution to dissolve clinically relevant dose,about 5000 ml
